Reference: patent US20230372381A1, “COMPOSITIONS AND METHODS UTILIZING PROTEIN INHIBITORS FOR […] INHIBITION AND TREATMENT OF SARS-CoV-2” (Rensselaer Polytechnic Institute, priority 2020, published 2023)
For at least one compound, name, drawing or mass did not settle the structure.

System: SARS-CoV-2
Test: Combination antiviral (synergy) assay with remdesivir
Type: cell-based
Conditions: inhibition of SARS-CoV-2 replication in combination with remdesivir

CC(C)(C)NC(=O)N[C@H](C(=O)N1C[C@H]2[C@@H]([C@H]1C(=O)NC(CC1CCC1)C(=O)C(N)=O)C2(C)C)C(C)(C)C (stereo partly shown) [BOC, boceprevir]
interaction with remdesivir (additive or synergistic): additive
